Measurements reported in PubChem BioAssay AID504804 (Drosophila RNAi Screening Center, 2011).

- Screen: 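Knock-downs shielding fly cells from apoptosis caused by DNA damage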 (primary screen)
- Cell system: Drosophila Kc cells
- Knock-down reagent: long dsRNA against Drosophila genes, 0.5 µg dsRNA per well
- Duration: 96 h (48 h knock-down, then 48 h drug)
- Challenge: doxorubicin 5 µg/ml for 48 h, added 48 h after dsRNA
- Measurement: 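Viability measured as cellular ATP by luminescence after 48 h knock-down then 48 h doxorubicin at 5 µg/ml; unnormalised plate counts for each replicate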
- Scale: raw ATP luminescence: higher = more viable cells, protection from doxorubicin
- Active means: 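Active when both duplicate wells lie at least 2 SD above the plate mean and protection is confirmed by rescreening and independent dsRNAs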
The deposit covers about 19,000 reagents; shown is a random part of those with a known target gene and a result. Of all reagents, 47 (0.25%) are marked active. 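Signals are raw, not normalised; exact z-scores behind calls not deposited; actives needed confirmation, so some wells reaching 2 SD are inactive.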 Names joined by + are all predicted targets of the reagent.

Against CG17134 [DRSC02583], the entry reads raw ATP luminescence, replicate 1 = 44810; raw ATP luminescence, replicate 2 = 71020; inactive. Depletion of Chsy [DRSC20175] resulted in: raw ATP luminescence, replicate 1 = 4.13e5; raw ATP luminescence, replicate 2 = 3.07e5; inactive. Depletion of Chsy [DRSC20176] resulted in: raw ATP luminescence, replicate 1 = 4.01e5; raw ATP luminescence, replicate 2 = 3.11e5; inactive. Knock-down of Rab10 [DRSC20572] gave: raw ATP luminescence, replicate 1 = 2.71e5; raw ATP luminescence, replicate 2 = 2.76e5; inactive. For Indy [DRSC10393], the values are raw ATP luminescence, replicate 1 = 21543; raw ATP luminescence, replicate 2 = 20207; inactive. For CG31869 [DRSC02582], the values are raw ATP luminescence, replicate 1 = 42410; raw ATP luminescence, replicate 2 = 76317; inactive.

Depletion of CG31869 [DRSC02674] gave: raw ATP luminescence, replicate 1 = 40873; raw ATP luminescence, replicate 2 = 80660; inactive. After knock-down of kune [DRSC04860], the record shows raw ATP luminescence, replicate 1 = 56140; raw ATP luminescence, replicate 2 = 46793; inactive. Knock-down of CG7985 [DRSC14128] came out at: raw ATP luminescence, replicate 1 = 40747; raw ATP luminescence, replicate 2 = 37363; inactive. Silencing of CG8892 [DRSC03121] gave: raw ATP luminescence, replicate 1 = 96153; raw ATP luminescence, replicate 2 = 67587; inactive. After knock-down of Dp1 [DRSC07403], the screen gave raw ATP luminescence, replicate 1 = 64123; raw ATP luminescence, replicate 2 = 72673; inactive. After knock-down of Mcm5 [DRSC16735], the screen gave raw ATP luminescence, replicate 1 = 64973; raw ATP luminescence, replicate 2 = 59053; inactive.

Laid out differently: 3 of the entries above.
Gene | DRSC id | raw ATP luminescence, replicate 1 | raw ATP luminescence, replicate 2 | Outcome
CG31869 | DRSC02582 | 42410 | 76317 | inactive
CG31869 | DRSC02674 | 40873 | 80660 | inactive
kune | DRSC04860 | 56140 | 46793 | inactive

Further reagents follow.
Silencing of CG32563 [DRSC19934] came out at: raw ATP luminescence, replicate 1 = 3.89e5; raw ATP luminescence, replicate 2 = 3.32e5; inactive. Depletion of Tsp42Ek [DRSC06187] gave: raw ATP luminescence, replicate 1 = 47447; raw ATP luminescence, replicate 2 = 70310; inactive. With knock-down of CG14537 [DRSC02395], the screen gave raw ATP luminescence, replicate 1 = 39467; raw ATP luminescence, replicate 2 = 71120; inactive. Silencing of Obp22a [DRSC00088] gave: raw ATP luminescence, replicate 1 = 2.97e5; raw ATP luminescence, replicate 2 = 3.03e5; inactive. Depletion of crol [DRSC03514] came out at: raw ATP luminescence, replicate 1 = 89703; raw ATP luminescence, replicate 2 = 74973; inactive. Knock-down of Tsp42Eb + CG30160 [DRSC04961] came out at: raw ATP luminescence, replicate 1 = 1.10e5; raw ATP luminescence, replicate 2 = 1.16e5; inactive.

For Tsp42Eb + CG30160 [DRSC06791], the entry reads raw ATP luminescence, replicate 1 = 41153; raw ATP luminescence, replicate 2 = 72860; inactive. After knock-down of Lcp65APsi [DRSC08795], the record shows raw ATP luminescence, replicate 1 = 1.24e5; raw ATP luminescence, replicate 2 = 97663; inactive. Against Lcp65APsi [DRSC10342], the entry reads raw ATP luminescence, replicate 1 = 84780; raw ATP luminescence, replicate 2 = 73450; inactive. With knock-down of CG10376 [DRSC02049] the results were raw ATP luminescence, replicate 1 = 99493; raw ATP luminescence, replicate 2 = 65060; inactive. bif [DRSC18901] showed raw ATP luminescence, replicate 1 = 1.64e5; raw ATP luminescence, replicate 2 = 1.67e5; inactive. For CCT8 [DRSC07130] the deposit lists raw ATP luminescence, replicate 1 = 69043; raw ATP luminescence, replicate 2 = 56657; inactive.

With knock-down of ATPsynbetaL [DRSC10503], the screen gave raw ATP luminescence, replicate 1 = 73940; raw ATP luminescence, replicate 2 = 54387; inactive. Against cGlr2 [DRSC04017], the entry reads raw ATP luminescence, replicate 1 = 73573; raw ATP luminescence, replicate 2 = 67613; inactive. Against CG8237 [DRSC07119] the deposit lists raw ATP luminescence, replicate 1 = 59850; raw ATP luminescence, replicate 2 = 69323; inactive. For CG10183 [DRSC14203], the entry reads raw ATP luminescence, replicate 1 = 55920; raw ATP luminescence, replicate 2 = 46970; inactive. After knock-down of tra2 [DRSC07708], the screen gave raw ATP luminescence, replicate 1 = 60807; raw ATP luminescence, replicate 2 = 53410; inactive. Spf30 [DRSC11976] scored raw ATP luminescence, replicate 1 = 52543; raw ATP luminescence, replicate 2 = 55493; inactive.

After knock-down of CG3823 [DRSC18325] the results were raw ATP luminescence, replicate 1 = 34830; raw ATP luminescence, replicate 2 = 38550; inactive. Osi14 [DRSC12368] scored raw ATP luminescence, replicate 1 = 78503; raw ATP luminescence, replicate 2 = 52623; inactive. With knock-down of CG14764 [DRSC05072], the record shows raw ATP luminescence, replicate 1 = 87917; raw ATP luminescence, replicate 2 = 82867; inactive. Against CG14764 [DRSC06498] the deposit lists raw ATP luminescence, replicate 1 = 54133; raw ATP luminescence, replicate 2 = 40500; inactive. After knock-down of CG14764 [DRSC06844], the record shows raw ATP luminescence, replicate 1 = 51667; raw ATP luminescence, replicate 2 = 75027; inactive. Silencing of dmGlut [DRSC02835] gave: raw ATP luminescence, replicate 1 = 82850; raw ATP luminescence, replicate 2 = 73160; inactive.
